# Reference: PubChem BioAssay AID1224828 (NIAID, 2016)
# Test: 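Find genes required for NF-kappaB p65 moving into the nucleus after LPS in mouse macrophages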 (primary screen)
# System: mouse RAW264.7 G9 macrophage reporter cells (GFP-p65, Tnf promoter-mCherry)
# Knock-down reagent: siRNA pool against mouse genes, 100 nM
# Time to read-out: 2 days siRNA transfection, then 40 min LPS before fixation
# Conditions: LPS (Salmonella minnesota R595) at 10 ng/ml
# Detection: 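Microscopy ratio of nuclear to perinuclear-ring GFP-p65 signal, scaled to the plate median; gene score is the average of two replicate robust z-scores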
# Direction: p65 translocation robust z-score: higher = more nuclear NF-kappaB p65 after LPS than the plate median; nuclear/cytoplasmic p65 ratio: higher = more nuclear NF-kappaB p65
# Rule for the call: 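Called active when z exceeds 3.3 or falls under -1.56 (median of Tlr4 controls), giving activity score of at least 50; no calls for control wells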
# Calls: active = hit (p65 shift raised or lowered); inactive = no clear change
# This is one part, drawn at random, of about 17,000 deposited reagents. 762 of them (4.5%) count as active. 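Active calls include both raised and lowered p65 entry, mostly lowered; wells with fewer than 50 cells lack a z-score.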 Raw values vary from plate to plate and are shown uncorrected. The numbers tell different reagents against one gene apart.
target,reagent no.,p65 translocation robust z-score,"nuclear/cytoplasmic p65 ratio, rep 1","nuclear/cytoplasmic p65 ratio, rep 2",low cell count flag,call
Rab3il1 (GeneID 74760),1,-1.17,1.47,1.24,enough cells to score,inactive
Rab3il1 (GeneID 74760),2,2.36,1.83,2.29,enough cells to score,inactive
Cpt1b (GeneID 12895),1,-2.63,1.22,1.31,enough cells to score,active
Cep128 (GeneID 75216),1,0.9,1.42,1.64,enough cells to score,inactive
Eif1b (GeneID 68969),1,-0.26,1.38,1.53,enough cells to score,inactive
Imp4 (GeneID 27993),1,1.23,1.76,1.72,enough cells to score,inactive
Slc44a2 (GeneID 68682),1,0.06,1.56,1.44,enough cells to score,inactive
Myo6 (GeneID 17920),1,0.47,1.48,1.42,enough cells to score,inactive
Qprt (GeneID 67375),1,0.62,1.59,1.29,enough cells to score,inactive
Gemin6 (GeneID 67242),1,-1.22,1.37,1.34,enough cells to score,inactive
Sir2l1 (GeneID 109229),1,2.27,1.74,1.97,enough cells to score,inactive
Ppp1r15b (GeneID 108954),1,0.35,1.56,1.44,enough cells to score,inactive
Capn10 (GeneID 23830),1,-0.79,1.5,1.49,enough cells to score,inactive
Nrros (GeneID 224109),1,,1.31,1.12,fewer than 50 cells per well; well left out of scoring,inactive
5930422O12Rik (GeneID 319688),1,-0.01,1.36,1.5,enough cells to score,inactive
A930033H14Rik (GeneID 320700),1,0.75,1.41,1.71,enough cells to score,inactive
Plcg2 (GeneID 234779),1,-0.47,1.48,1.3,enough cells to score,inactive
Pgam1 (GeneID 18648),1,-0.09,1.5,1.34,enough cells to score,inactive
Becn1 (GeneID 56208),1,-1.45,1.29,1.32,enough cells to score,inactive
Tdpoz5 (GeneID 399676),1,0.28,1.39,1.23,enough cells to score,inactive
Oog2 (GeneID 381570),1,-1.18,1.28,1.11,enough cells to score,inactive
Lsm14b (GeneID 241846),1,0.25,1.39,1.64,enough cells to score,inactive
Scfd2 (GeneID 212986),1,0.96,1.55,1.32,enough cells to score,inactive
Serpinh1 (GeneID 12406),1,0.03,1.39,1.73,enough cells to score,inactive
Zfp160 (GeneID 224585),1,0.56,1.67,1.73,enough cells to score,inactive
Or4c111 (GeneID 258895),1,-0.27,1.72,1.45,enough cells to score,inactive
Bcl7a (GeneID 77045),1,-0.5,1.47,1.61,enough cells to score,inactive
Fam89b (GeneID 17826),1,0.92,1.58,1.45,enough cells to score,inactive

Next part; the last 3 above are carried over.
target,reagent no.,p65 translocation robust z-score,"nuclear/cytoplasmic p65 ratio, rep 1","nuclear/cytoplasmic p65 ratio, rep 2",low cell count flag,call
Or4c111 (GeneID 258895),1,-0.27,1.72,1.45,enough cells to score,inactive
Bcl7a (GeneID 77045),1,-0.5,1.47,1.61,enough cells to score,inactive
Fam89b (GeneID 17826),1,0.92,1.58,1.45,enough cells to score,inactive
Cog4 (GeneID 102339),1,-0.35,1.38,1.37,enough cells to score,inactive
Fkbp11 (GeneID 66120),1,0.11,1.35,1.48,enough cells to score,inactive
Or5w13 (GeneID 258653),1,-1.44,1.49,1.32,enough cells to score,inactive
2900026A02Rik (GeneID 243219),1,,1.33,1.17,fewer than 50 cells per well; well left out of scoring,inactive
Snx24 (GeneID 69226),1,,1.22,1.17,fewer than 50 cells per well; well left out of scoring,inactive
Or2d2 (GeneID 258776),1,,1.28,1.11,fewer than 50 cells per well; well left out of scoring,inactive
D930031A20Rik (GeneID 319423),1,-0.17,1.49,1.58,enough cells to score,inactive
Ccpg1 (GeneID 72278),1,1.61,1.76,1.51,enough cells to score,inactive
Ccdc7a (GeneID 74703),1,-0.43,1.23,1.24,enough cells to score,inactive
Trim52 (GeneID 212085),1,-0.83,1.59,1.11,enough cells to score,inactive
Vgll4 (GeneID 232334),1,0.32,1.48,1.22,enough cells to score,inactive
Hspb8 (GeneID 80888),1,-0.57,1.85,1.3,enough cells to score,inactive
Zfp319 (GeneID 79233),1,-0.21,1.32,1.28,enough cells to score,inactive
Tec (GeneID 21682),1,-1.56,1.37,1.19,enough cells to score,inactive
Tnrc6b (GeneID 213988),1,-0.89,1.37,1.49,enough cells to score,inactive
Coro1a (GeneID 12721),1,0.18,1.52,1.39,enough cells to score,inactive
Gata4 (GeneID 14463),1,0.69,1.5,1.49,enough cells to score,inactive
Capn5 (GeneID 12337),1,0.25,1.54,1.92,enough cells to score,inactive
Mrm1 (GeneID 217038),1,1.24,1.57,1.67,enough cells to score,inactive
Lin52 (GeneID 217708),1,,1.32,1.46,fewer than 50 cells per well; well left out of scoring,inactive
Magoh (GeneID 17149),1,,1.64,1.65,fewer than 50 cells per well; well left out of scoring,inactive
Prkce (GeneID 18754),1,,1.76,1.27,fewer than 50 cells per well; well left out of scoring,inactive
Krtap13-21 (GeneID 69696),1,,1.55,1.54,fewer than 50 cells per well; well left out of scoring,inactive
Usp27x (GeneID 54651),1,-0.85,1.24,1.16,enough cells to score,inactive
Agtr1a (GeneID 11607),1,-0.29,1.47,1.73,enough cells to score,inactive
Edem3 (GeneID 66967),1,1.44,1.74,1.91,enough cells to score,inactive
Or2p2 (GeneID 258528),1,0.71,1.6,1.7,enough cells to score,inactive
Ap4m1 (GeneID 11781),1,3.25,1.97,2.08,enough cells to score,inactive
Ugt2b37 (GeneID 112417),1,-0.07,1.49,1.32,enough cells to score,inactive
Farp2 (GeneID 227377),1,0.37,1.6,1.34,enough cells to score,inactive
Lamc2 (GeneID 16782),1,0.11,1.54,1.35,enough cells to score,inactive
